No constants are given. Whether binding was seen depends on the method and setting. Binding seen in cells or lysates may run through a third protein. Some binding calls cover weakened binding; strength is not graded here.

Protein sequences, listed by entry. Tags and fused reporters are not part of them. Lines headed by an entry give the natural chain unless they say otherwise; changes in a name come on top. Chains listed by the source or under a name are the forms on record and can include a tag or linker.
UniProt P11413: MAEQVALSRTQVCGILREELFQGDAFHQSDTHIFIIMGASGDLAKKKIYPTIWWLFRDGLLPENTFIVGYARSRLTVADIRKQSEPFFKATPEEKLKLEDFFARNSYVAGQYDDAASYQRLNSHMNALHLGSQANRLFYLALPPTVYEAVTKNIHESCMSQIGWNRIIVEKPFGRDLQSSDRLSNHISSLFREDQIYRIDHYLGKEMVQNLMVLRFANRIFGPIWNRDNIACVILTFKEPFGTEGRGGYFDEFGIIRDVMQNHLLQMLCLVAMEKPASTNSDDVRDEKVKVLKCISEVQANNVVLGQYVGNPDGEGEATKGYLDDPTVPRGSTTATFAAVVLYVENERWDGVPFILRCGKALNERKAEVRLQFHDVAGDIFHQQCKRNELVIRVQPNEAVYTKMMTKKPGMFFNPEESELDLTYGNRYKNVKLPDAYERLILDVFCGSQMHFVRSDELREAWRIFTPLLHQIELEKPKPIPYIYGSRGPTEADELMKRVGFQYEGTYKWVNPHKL
Pseudo-wild type G6PD (AcK414), C-terminal 6×His tag (P11413, form named): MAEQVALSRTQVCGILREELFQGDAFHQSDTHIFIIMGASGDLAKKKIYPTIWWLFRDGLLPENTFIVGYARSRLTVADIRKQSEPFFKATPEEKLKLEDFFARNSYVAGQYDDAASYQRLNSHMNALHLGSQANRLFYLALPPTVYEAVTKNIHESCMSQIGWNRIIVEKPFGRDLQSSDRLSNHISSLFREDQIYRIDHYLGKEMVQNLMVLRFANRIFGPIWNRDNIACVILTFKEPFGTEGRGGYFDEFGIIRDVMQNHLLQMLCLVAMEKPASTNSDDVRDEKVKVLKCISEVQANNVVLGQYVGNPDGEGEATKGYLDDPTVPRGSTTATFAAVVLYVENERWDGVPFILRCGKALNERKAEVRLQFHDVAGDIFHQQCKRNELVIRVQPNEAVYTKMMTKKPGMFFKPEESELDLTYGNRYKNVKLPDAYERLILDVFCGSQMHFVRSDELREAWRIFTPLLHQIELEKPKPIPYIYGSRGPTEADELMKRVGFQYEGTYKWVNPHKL
UniProt P06241: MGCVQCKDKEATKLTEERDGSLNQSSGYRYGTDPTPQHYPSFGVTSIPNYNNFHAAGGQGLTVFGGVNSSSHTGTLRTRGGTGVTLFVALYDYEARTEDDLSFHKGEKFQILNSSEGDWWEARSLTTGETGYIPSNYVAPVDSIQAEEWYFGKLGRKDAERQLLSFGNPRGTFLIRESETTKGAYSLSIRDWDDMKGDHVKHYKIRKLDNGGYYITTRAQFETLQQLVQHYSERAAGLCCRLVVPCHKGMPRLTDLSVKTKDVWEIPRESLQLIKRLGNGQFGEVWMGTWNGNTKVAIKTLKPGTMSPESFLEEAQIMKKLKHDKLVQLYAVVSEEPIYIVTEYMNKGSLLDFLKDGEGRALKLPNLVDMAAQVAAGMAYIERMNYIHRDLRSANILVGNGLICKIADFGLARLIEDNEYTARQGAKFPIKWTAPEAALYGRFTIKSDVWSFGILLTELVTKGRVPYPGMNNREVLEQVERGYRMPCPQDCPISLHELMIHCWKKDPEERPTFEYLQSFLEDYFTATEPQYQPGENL

1 substance from article PMC10556143 can be followed below.

For test [1], the target named is Pseudo-wild type G6PD (AcK414), C-terminal 6×His tag (human) (UniProt P11413). As to the kind of experiment: pull-down; 6×His-tagged G6PD co-expressed with Fyn in E. coli; pull-down of the His tag (Supplementary Fig. 10c).
The target in test [2] is K403-acetylated G6PD, C-terminal 6×His tag (human) (UniProt P11413). Described as above.

For the substance “Fyn (from UniProt P06241 1-537) (enzyme)”, the binding result in test [1] and in test [2] was “binds” throughout.
